From US20220354791A1, “MESOPOROUS POLYMERIC PARTICULATE MATERIAL” (Aston University, priority 2019, published 2022) come the findings set out here.

A short description of this data set: Dissolution testing of FURO-loaded mesoporous particles (USP I rotating basket). The data set is classed as physicochemical. The following applies: after 120 mins; HCl-NaCl pH 3.0 medium + 0.25% SLS, 900 mL, 37° C., 100 rpm, 40 mg FURO in HPMC capsule. As to the method:
Testing conditions: HCL-NaCl medium pH 3+0.25% SLS, 900 mL, USP apparatus 1 (rotating basket), 100 rpm, HPLC method (mobile phase: pH 3 phosphate buffer:acetonitrile (60:40); column: C18, 15 cm×4.6 mm, 5 μm; flow rate: 1 mL/min; injection volume: 10 μL; detector: UV, 234 nm).
Dissolution testing of FURO-loaded mesoporous particles as prepared in Example 5 was performed by using USP I apparatus (rotating basket, 100 rpm) in an Erweka DT 126 dissolution tester. Samples containing 40 mg FURO were loaded into a HPMC hard-shell capsule and tested in 900 mL of HCl—NaCl pH 3.0 medium with 0.25% SLS at 37° C. The concentrations of dissolved FURO were determined using a HPLC method with mobile phase of phosphate buffer pH 3: acetonitrile (60:40), C18 column (15 cm×4.6 mm, 5 μm), column temperature of 35° C., flow rate of 1 mL/min, injection volume of 10 μL, and UV detector at 234 nm in an Agilent 1200 HPLC system.

In the case of `NS(=O)(=O)c1cc(C(=O)O)c(NCc2ccco2)cc1Cl` [Furosemide raw material, Furosemide], the Furosemide dissolution rate came to 65.3%.
